Experiment [1] deals with T1, MYC-tagged thousand and one kinase 1 (TAOK1) (human) (UniProt Q7L7X3).
T1 sequence: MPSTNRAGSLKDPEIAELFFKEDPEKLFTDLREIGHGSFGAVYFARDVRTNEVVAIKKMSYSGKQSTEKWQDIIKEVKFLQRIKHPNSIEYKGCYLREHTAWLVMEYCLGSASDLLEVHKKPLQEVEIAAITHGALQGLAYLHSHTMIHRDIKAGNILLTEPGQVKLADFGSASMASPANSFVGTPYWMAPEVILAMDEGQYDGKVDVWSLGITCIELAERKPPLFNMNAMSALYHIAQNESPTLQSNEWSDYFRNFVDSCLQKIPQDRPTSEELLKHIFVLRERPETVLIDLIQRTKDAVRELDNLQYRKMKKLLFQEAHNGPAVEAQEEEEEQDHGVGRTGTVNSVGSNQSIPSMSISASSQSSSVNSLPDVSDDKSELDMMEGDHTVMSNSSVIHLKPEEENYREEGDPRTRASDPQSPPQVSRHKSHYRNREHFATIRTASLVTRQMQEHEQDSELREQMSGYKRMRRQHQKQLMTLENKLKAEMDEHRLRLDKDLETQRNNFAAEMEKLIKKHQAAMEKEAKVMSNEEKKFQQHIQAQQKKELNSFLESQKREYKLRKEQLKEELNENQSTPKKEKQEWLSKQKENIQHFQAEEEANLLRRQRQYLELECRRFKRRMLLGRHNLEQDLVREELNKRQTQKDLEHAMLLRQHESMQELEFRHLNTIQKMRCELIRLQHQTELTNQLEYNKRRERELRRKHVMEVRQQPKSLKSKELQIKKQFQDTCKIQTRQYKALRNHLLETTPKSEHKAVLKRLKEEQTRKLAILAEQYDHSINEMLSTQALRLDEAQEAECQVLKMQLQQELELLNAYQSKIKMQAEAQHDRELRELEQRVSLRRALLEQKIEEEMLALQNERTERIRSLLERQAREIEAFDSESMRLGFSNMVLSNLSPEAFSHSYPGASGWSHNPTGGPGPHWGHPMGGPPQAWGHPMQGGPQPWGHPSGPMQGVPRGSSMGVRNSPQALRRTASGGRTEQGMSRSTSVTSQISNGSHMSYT
In words: co-IP; protein extracts of IHHs transfected with MYC-TAOK1 and FLAG-STK25 (or FLAG-Control plasmid); immunoprecipitated with anti-MYC magnetic beads; western blot for TAOK1 and STK25.

The chains behind the UniProt entries cited, without tags or fusion partners.
UniProt O00506: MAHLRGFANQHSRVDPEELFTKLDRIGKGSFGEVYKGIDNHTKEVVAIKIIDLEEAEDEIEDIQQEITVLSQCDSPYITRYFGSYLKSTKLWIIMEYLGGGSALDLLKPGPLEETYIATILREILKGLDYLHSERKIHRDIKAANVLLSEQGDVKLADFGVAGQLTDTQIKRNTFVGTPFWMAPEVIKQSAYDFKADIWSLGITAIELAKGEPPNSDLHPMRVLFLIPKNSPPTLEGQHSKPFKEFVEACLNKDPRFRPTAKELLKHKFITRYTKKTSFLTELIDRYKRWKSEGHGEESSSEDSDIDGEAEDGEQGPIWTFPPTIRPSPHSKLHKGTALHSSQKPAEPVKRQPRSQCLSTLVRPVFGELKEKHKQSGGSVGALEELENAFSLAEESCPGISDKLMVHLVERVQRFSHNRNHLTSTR

For experiment [2], the target named is FLAG-STK25 (UniProt O00506). The experiment is described as follows: co-IP; protein extracts of IHHs transfected with MYC-TAOK1 (or MYC-Control plasmid) and FLAG-STK25; immunoprecipitated with anti-FLAG M2 magnetic beads; western blot for TAOK1 and STK25.

Results are given in words; binding and its absence hold for the method and conditions named. Binding seen in cells or lysates may run through a third protein. Some entries that bind do so weakly or less than the wild type. Tags and fused reporters may be left off the sequences shown.

“FLAG-STK25 (from UniProt O00506 1-426) (enzyme)”: the binding result in experiment [1] is recorded as “binds”.

B1: MYC-tagged thousand and one kinase 1 (TAOK1) (enzyme, UniProt Q7L7X3 1-1001)
chain: T1 sequence
Regarding B1, the binding entry in experiment [2] was “binds”.

The values are drawn from publication PMC10027040.
